# Source: patent US20250064990A1, “METHODS OF SCREENING FOR VMAT2 INHIBITORS” (Neurocrine Biosciences, Inc., priority 2021, published 2025)
# By UniProt entry, the sequences of proteins in these tests, tags left out.
# UniProt A0A2K5UVB8, entry or part of it: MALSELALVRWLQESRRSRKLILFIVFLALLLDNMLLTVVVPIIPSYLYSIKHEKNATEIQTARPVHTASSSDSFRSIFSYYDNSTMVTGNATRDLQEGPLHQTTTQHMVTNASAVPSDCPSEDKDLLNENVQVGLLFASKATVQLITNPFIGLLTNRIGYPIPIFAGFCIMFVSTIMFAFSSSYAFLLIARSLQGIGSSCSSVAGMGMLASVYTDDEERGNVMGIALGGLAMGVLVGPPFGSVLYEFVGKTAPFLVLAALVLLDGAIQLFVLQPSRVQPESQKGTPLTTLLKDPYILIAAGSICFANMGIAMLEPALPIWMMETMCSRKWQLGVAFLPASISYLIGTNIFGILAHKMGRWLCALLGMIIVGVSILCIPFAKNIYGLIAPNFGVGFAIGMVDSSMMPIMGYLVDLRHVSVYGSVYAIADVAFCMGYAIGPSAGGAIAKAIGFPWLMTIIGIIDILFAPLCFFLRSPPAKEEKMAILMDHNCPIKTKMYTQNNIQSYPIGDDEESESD
# At least one structure is not confirmed: it was looked up by name or label, or the drawing left a doubt.
# Molecular target: VMAT2 (Macaca fascicularis, UniProt A0A2K5UVB8)
# Assay: VMAT2 occupancy in NHP brain after i.v. NBI-98782, [^18F]AV-133 PET
# Format: in vivo, cynomolgus monkeys (Macaca fascicularis)
# From the text: A radioligand, [^18F]AV-133, has been used to image and quantify brain VMAT2 in vivo.
# Two female non-naïve cynomolgus monkeys (Macaca fascicularis) were used in this study. The animals were judged to be in good health before the start of the study. At study origination, animals A7701 (Tag ID A5028) and A7702 (Tag ID A5029) were 4.45 kg/4 years 11 months and 4.75 kg/3 years 10 months, respectively.
# Dynamic data were acquired in the MicroPET Focus-220 camera (Siemens Microsystems, Knoxville, TN). Emission data were collected for 120 min post-injection and reconstructed into a series of 33 frames and all standard corrections were applied: normalization, random, scatter and attenuation (via CT scan). Dynamic brain PET images were transferred and analyzed using the image processing PMOD software package v3.802 (PMOD Technologies, Zurich, Switzerland). The PET images were rigidly aligned to a previously acquired animal's brain T1 MRI and then spatially normalized to a common cynomolgus MRI template for anatomical brain region definition.
# Volumes of interest (VOIs) defined in the cynomolgus template space (see e.g., Ballanger et al. Neuroimage, 2013, 77:26-43) were applied to the spatially normalized PET images to compute time-activity curves (TACs, kBq/cm^3) for caudate (0.96 cm^3), putamen (1.34 cm^3) and occipital (8.61 cm^3). TACs and images (averaged between 90-120 min) were presented in Standard Uptake Value (SUV) units (g/mL) normalized by the weight of the animal and the injected dose
# Non-invasive Logan graphical analysis (start time of fit, t*=30 min) was used to estimate regional non-displaceable binding potential (BPND) using the TACs in the caudate and putamen, with the cerebellar cortex as the reference TAC. […] Target occupancy was calculated according to the Equation 2-1.
# where h is the Hill slope (h=1.0) and C is the mean of observed plasma concentrations during the scanning interval (60 to 180 minutes post-dose).
smiles,measurement,setting,value
"COc1cc2c(cc1OC)[C@H]1C[C@@H](O)[C@H](CC(C)C)CN1CC2 [NBI-98782, (2R, 3R,11bR)-3-isobutyl-9,10-dimethoxy-1,3,4,6,7,11b-hexahydro-2H-pyrido[2,1-a]isoquinolin-2-ol]",[^18F]AV-133 BPND,"animal A7701, Caudate, NBI-98782 0.04 mg/kg",1.70
same,[^18F]AV-133 BPND,"animal A7701, Caudate, NBI-98782 0.13 mg/kg",1.34
same,[^18F]AV-133 BPND,"animal A7701, Caudate, NBI-98782 0.5 mg/kg",0.44
same,[^18F]AV-133 BPND,"animal A7701, Putamen, NBI-98782 0.04 mg/kg",2.86
same,[^18F]AV-133 BPND,"animal A7701, Putamen, NBI-98782 0.13 mg/kg",1.86
same,[^18F]AV-133 BPND,"animal A7701, Putamen, NBI-98782 0.5 mg/kg",0.66
same,[^18F]AV-133 BPND,"animal A7702, Caudate, NBI-98782 0.016 mg/kg",3.93
same,[^18F]AV-133 BPND,"animal A7702, Caudate, NBI-98782 0.13 mg/kg",1.09
same,[^18F]AV-133 BPND,"animal A7702, Putamen, NBI-98782 0.016 mg/kg",5.17
same,[^18F]AV-133 BPND,"animal A7702, Putamen, NBI-98782 0.13 mg/kg",1.33
same,[^18F]AV-133 binding post administration of NBI-98782,caudate and putamen vs baseline,dose- and concentration-dependent decrease
